The source of these data is US7582604B2 (Polyphor Ltd., priority 2002, dated 2009).

Strings that start with PEPTIDE1 are HELM notation: dots part the residues, brackets hold end groups and non-standard residues.

The nature of this data set: general procedure: Fmoc solid-phase peptide synthesis; Fmoc-ProO-chlorotritylresin (2-chlorotrityl polystyrene). Conditions: whole synthesis.

For the substance “PEPTIDE1{R.W.L.K.K.R.R.W.K.Y.Q.R.[dP].P}$PEPTIDE1,PEPTIDE1,1:R1-14:R2$$$V2.0”, the “final purity (method not given)” value stood at 100%.

With “PEPTIDE1{R.W.L.K.K.R.R.W.V.Y.Y.R.[dP].P}$PEPTIDE1,PEPTIDE1,1:R1-14:R2$$$V2.0”, the “final purity (method not given)” value stood at 100%.

On to “PEPTIDE1{R.W.L.K.K.R.R.W.K.Y.V.R.[dP].P}$PEPTIDE1,PEPTIDE1,1:R1-14:R2$$$V2.0”, for which the “final purity (method not given)” value turned out to be 100%.

On to “PEPTIDE1{R.W.L.K.K.R.R.W.K.Q.Y.R.[dP].P}$PEPTIDE1,PEPTIDE1,1:R1-14:R2$$$V2.0”, for which the “final purity (method not given)” value stood at 100%.

For “PEPTIDE1{R.W.L.V.K.R.R.W.K.Y.Y.R.[dP].P}$PEPTIDE1,PEPTIDE1,1:R1-14:R2$$$V2.0”, the “final purity (method not given)” value is given as 100%.

With “PEPTIDE1{R.W.L.K.K.R.R.W.L.Y.Y.R.[dP].P}$PEPTIDE1,PEPTIDE1,1:R1-14:R2$$$V2.0”, the “final purity (method not given)” value is listed as 100%.

Regarding “PEPTIDE1{R.W.L.K.K.R.R.W.K.Y.L.R.[dP].P}$PEPTIDE1,PEPTIDE1,1:R1-14:R2$$$V2.0”, the “final purity (method not given)” value came out at 24%.

Consider “PEPTIDE1{R.W.L.K.K.R.R.W.K.T.Y.R.[dP].P}$PEPTIDE1,PEPTIDE1,1:R1-14:R2$$$V2.0”, for which the “final purity (method not given)” value stood at 54%.
